Reference: PubChem BioAssay AID1224830 (NIAID, 2016)
Shown is one part, drawn at random, of about 18,000 reagents. Of all reagents, about 2,900 (16%) got an active call. 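Calls are made per well; low scores hint the gene aids the LPS response, high scores that it dampens it.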 Repeated entries: four replicate wells of each siRNA pool.

- Test: 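Regulators of TLR4 signalling towards TNF-alpha in macrophage-like cells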 (primary screen)
- Cells: human THP-1 monocytic leukaemia cells, TNF dual-luciferase reporter clone, PMA-differentiated to macrophage-like cells
- Reagent: siRNA pool against human genes, 50 nM
- Duration: LPS for 4 h, given about 3 days after siRNA transfection
- Challenge: bacterial LPS (TLR4 ligand), 10 ng/ml
- Measured: 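TNF firefly reporter luminescence divided by renilla, normalised to the plate median, then turned into a robust z-score for each replicate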
- Reading the numbers: TNF reporter robust z-score: higher = stronger TNF reporter response to LPS
- Hit rule: 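a well is active when its z-score exceeds 2.8 or falls below -1.5; control wells carry no call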

NDUFA1
- TNF reporter robust z-score: -0.75
- Call: inactive

NDUFA1
- TNF reporter robust z-score: -0.88
- Call: inactive

NDUFA1
- TNF reporter robust z-score: -1.56
- Call: active

NDUFA1
- TNF reporter robust z-score: -1.12
- Call: inactive

OR4L1
- TNF reporter robust z-score: -0.31
- Call: inactive

OR4L1
- TNF reporter robust z-score: 0.98
- Call: inactive

OR4L1
- TNF reporter robust z-score: 1.44
- Call: inactive

OR4L1
- TNF reporter robust z-score: 0.52
- Call: inactive

GPX6
- TNF reporter robust z-score: 0.54
- Call: inactive

GPX6
- TNF reporter robust z-score: 0.56
- Call: inactive

GPX6
- TNF reporter robust z-score: 0.01
- Call: inactive

GPX6
- TNF reporter robust z-score: 1.29
- Call: inactive

ZFYVE27
- TNF reporter robust z-score: -1.24
- Call: inactive

ZFYVE27
- TNF reporter robust z-score: -0.27
- Call: inactive

ZFYVE27
- TNF reporter robust z-score: -1.07
- Call: inactive

ZFYVE27
- TNF reporter robust z-score: -1.06
- Call: inactive

NPHS1
- TNF reporter robust z-score: 0.2
- Call: inactive

NPHS1
- TNF reporter robust z-score: 3.23
- Call: active

NPHS1
- TNF reporter robust z-score: 2.1
- Call: inactive

NPHS1
- TNF reporter robust z-score: 2.21
- Call: inactive

SUB1
- TNF reporter robust z-score: -0.37
- Call: inactive

SUB1
- TNF reporter robust z-score: 0.12
- Call: inactive

SUB1
- TNF reporter robust z-score: -0.25
- Call: inactive

SUB1
- TNF reporter robust z-score: 0.6
- Call: inactive

NR1I3
- TNF reporter robust z-score: 1.02
- Call: inactive

NR1I3
- TNF reporter robust z-score: 1.29
- Call: inactive

NR1I3
- TNF reporter robust z-score: 1.52
- Call: inactive

NR1I3
- TNF reporter robust z-score: 1.35
- Call: inactive

GDF5
- TNF reporter robust z-score: 1.02
- Call: inactive

GDF5
- TNF reporter robust z-score: 2.52
- Call: inactive

GDF5
- TNF reporter robust z-score: 0.37
- Call: inactive

GDF5
- TNF reporter robust z-score: 1.71
- Call: inactive

Records listed so far marked active:
NDUFA1
- TNF reporter robust z-score: -1.56
- Call: active

NPHS1
- TNF reporter robust z-score: 3.23
- Call: active
